Values joined by “and” are separate entries in the source; they are usually repeats but may differ in a detail not shown here. Equal values may be shown once. The campaign covered roughly 390,000 compounds. About 820 (0.21%) were called active. Inconclusive means that the source gave no clear call. Such entries were picked first, then a sample of the others. Calls come from the whole dose curve; as a rule, active = well fitted inhibition curve with a large enough effect; inconclusive = small, poorly fitted or top-dose-only effect, or another doubt; inactive = no such curve, though single readings can be large or run the other way. Potencies of inconclusive entries are doubtful fits and often do not repeat.
The compounds below were run against Histone acetyltransferase KAT2A (Homo sapiens) (UniProt Q92830) (assay: qHTS Assay for Inhibitors of GCN5L2). Conditions: GCN5L2 HAT assay, ThioGlo1 CoA-SH fluorescence; activity change, negative = inhibition: at 58.9 µM (top of the series) unless noted.
Outline: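 Titration-based screen in which CoA formation is detected via maleimide probe ThioGlo1 (50uM) turning fluorescent on thiol reaction; substrates H3(1-25) 75uM and acetyl-CoA 70uM, GCN5L2 20nM, 20 min incubation at room temperature.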
% is set by controls: 0 for no effect and ±100 for the full control effect; potency is the fitted concentration of half-maximal effect.

Amino acid sequences for entries named in this document (tags omitted).
UniProt Q92830, whole entry, looked up: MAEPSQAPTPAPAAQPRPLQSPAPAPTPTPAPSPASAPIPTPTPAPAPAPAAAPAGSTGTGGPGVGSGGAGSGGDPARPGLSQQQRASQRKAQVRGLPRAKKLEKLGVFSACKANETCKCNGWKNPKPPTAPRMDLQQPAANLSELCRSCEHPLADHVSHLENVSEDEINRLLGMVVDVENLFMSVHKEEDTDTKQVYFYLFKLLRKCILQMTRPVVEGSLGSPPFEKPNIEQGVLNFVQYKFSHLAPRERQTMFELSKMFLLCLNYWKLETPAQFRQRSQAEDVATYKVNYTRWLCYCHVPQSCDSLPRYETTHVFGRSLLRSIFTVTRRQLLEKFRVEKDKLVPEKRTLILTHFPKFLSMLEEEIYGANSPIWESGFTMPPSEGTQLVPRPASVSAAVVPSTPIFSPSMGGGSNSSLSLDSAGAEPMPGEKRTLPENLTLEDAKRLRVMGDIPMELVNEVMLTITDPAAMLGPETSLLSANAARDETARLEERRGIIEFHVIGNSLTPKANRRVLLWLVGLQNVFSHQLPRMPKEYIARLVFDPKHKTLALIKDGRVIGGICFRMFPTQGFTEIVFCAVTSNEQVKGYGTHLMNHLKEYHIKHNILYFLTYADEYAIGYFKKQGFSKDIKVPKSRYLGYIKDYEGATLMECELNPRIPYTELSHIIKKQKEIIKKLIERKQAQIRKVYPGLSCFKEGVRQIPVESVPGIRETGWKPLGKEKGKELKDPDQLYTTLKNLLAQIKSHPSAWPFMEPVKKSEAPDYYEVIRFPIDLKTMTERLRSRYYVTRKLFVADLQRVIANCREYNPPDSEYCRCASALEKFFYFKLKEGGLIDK

SMILES	Potency	activity change, negative = inhibition
O=c1ccc2c(-c3ccccc3)c3ccc(O)cc3oc-2c1	inconclusive: 14.1 µM [inhibitor, partial curve, poor fit]	–
Cc1cc(=O)c2c([nH]1)c(C)cc1[nH]c(C)c(C)c12	inconclusive: 35.5 µM [inhibitor, single point]	–
COc1ccc(NC(=O)c2sc3nc(C(F)(F)F)cc(C)c3c2N)cc1OC	–	inactive: -19.4%
CCOC(=O)C1(CCOc2ccccc2)CCN(Cc2ccc(OC)c(COC)c2)CC1	inconclusive: 31.6 µM [inhibitor, single point]	–
O=C(C/C=N\OCc1ccc(Cl)cc1Cl)Nc1ccccc1	–	inactive: -16.2%
CC1(C)CC(=O)/C(=C(\O)Cc2ccccc2)C(=NCCCCCC(=O)O)C1	inconclusive: 10 µM [inhibitor, partial curve, poor fit]	–
COc1ccc(NC2CCCN(C(=O)c3ccccc3N3CCOCC3)C2)cc1OC (centres undefined)	inconclusive: 1 µM [inhibitor, full curve, poor fit]	–
CC1CN(c2nc3ccccn3c(=O)c2/C=C(\C#N)C(N)=O)CC(C)O1 (centres undefined)	inconclusive: 4.47 µM [inhibitor, full curve, poor fit]	–
N=c1oc2ccc3ccccc3c2cc1-c1nnc2n1CCCCC2	inconclusive: 31.6 µM [inhibitor, single point]	–
NC(=O)[C@@H]1CC2(CC(c3cccc(NC(=O)COc4ccc(Cl)cc4)c3)=NO2)CN1C(=O)COc1ccc(Cl)cc1 (some centres undefined)	–	inactive: -26.1%
CCOC(=O)CCc1c(C)c2ccc3c(c2oc1=O)CN(CCCO)CO3	inconclusive: 25.1 µM [inhibitor, partial curve]	–
C=CCc1cc(/C=C2/NC(=S)NC2=O)cc(OC)c1O	–	inactive: -1.46%
Cc1noc(C)c1-c1cc(N(C)Cc2ccco2)ncn1	inconclusive: 28.2 µM [inhibitor, single point]	–
CC(C)N1C(=O)C2C(c3ccccc3O)NC(C)(C(=O)O)C2C1=O (centres undefined)	–	inactive: -0.85%
O=C1Nc2ccccc2OC1CC(=O)N1CCN(c2cccc(C(F)(F)F)c2)CC1 (centres undefined)	–	inconclusive: -88.5% [inhibitor]
O=C1NC(=Nc2ccccc2)S/C1=C\C=C\c1ccco1	inconclusive: 39.8 µM [inhibitor, single point]	–
COc1ccc(-c2nc3cnc(OC)nc3n(Cc3cccc(OC)c3)c2=O)cc1	inconclusive: 31.6 µM [inhibitor, single point]	–
Cc1ncsc1CCSc1nc2ccccc2c(=O)n1C	inconclusive: 0.891 µM [inhibitor, single point]	–
CCOC(=O)c1sc(NN=C(C(=O)OC)C(=O)OC)c(C(=O)OCC)c1C	inconclusive: 8.91 µM [inhibitor, single point]	–
O=C(OCC(=O)N1CCCc2ccccc21)c1cc(Cl)ccc1O	inconclusive: 7.94 µM [inhibitor, full curve, poor fit]	–
Cc1ccccc1CN1CCC(n2nccc2NC(=O)c2ccc3c(c2)OCO3)CC1	inconclusive: 0.708 µM [inhibitor, full curve, poor fit]	–
O=[N+]([O-])c1cccc(S(=O)(=O)NCc2ccccn2)c1	inconclusive: 7.08 µM [inhibitor, single point]	–

SMILES	Potency	activity change, negative = inhibition
COCCn1c(=O)c(-c2ccc(OC)cc2)nc2cnc(Oc3cccc(Cl)c3)nc21	inconclusive: 39.8 µM [inhibitor, partial curve]	–
O=C(CCCOc1cccc(Br)c1)NC1CCC(O)CC1 (centres undefined)	inconclusive: 39.8 µM [inhibitor, single point]	–
CCc1ccc(NC(=O)NCc2cccnc2)cc1	inconclusive: 8.91 µM [inhibitor, single point]	–
Cc1ccc(-c2noc(-c3ccc(NCc4cccnc4)c([N+](=O)[O-])c3)n2)cc1	–	inactive: -9.2%
O=C(CSc1nccc(=O)[nH]1)N1N=C2/C(=C/c3ccco3)CCCC2C1c1ccco1 (centres undefined)	inconclusive: 25.1 µM [inhibitor, single point]	–
COc1ccccc1C(=O)O/N=C(\c1ccccc1)c1ccncc1	inconclusive: 39.8 µM [inhibitor, single point]	–
COc1ccc(CN(Cc2cccn2C)S(=O)(=O)c2ccc(C)cc2)cc1	inconclusive: 11.2 µM [inhibitor, partial curve, poor fit]	–
Cc1cccc(OCC(=O)NC(=S)NNC(=O)c2ccncc2)c1	inconclusive: 31.6 µM [inhibitor, single point]	–
COc1ccc(N(C(=O)C(C)C)S(=O)(=O)c2ccc3ccccc3c2)cc1	inconclusive: 7.08 µM [inhibitor, single point]	–
CCNc1ncc2nc(-c3ccccc3)c(=O)n(C)c2n1	inconclusive: 3.16 µM [inhibitor, full curve]	–
Cc1ccc(C2CC(c3cccs3)=NN2C(=O)CSc2nc3ccccc3o2)cc1 (centres undefined)	–	inactive: -8.78%
Cc1cc(=O)oc2c3c(cc(OCC(=O)N[C@H](C(=O)O)c4ccccc4)c12)OC(C)(C)CC3	inconclusive: 15.8 µM [inhibitor, partial curve]	–
COC(=O)CSC1=C(C#N)C(=O)NC(c2ccccc2)S1 (centres undefined)	active: 35.5 µM	–
COC(=O)c1cc(Cl)ccc1NC(=O)CSc1ncc(S(=O)(=O)c2ccc(Br)cc2)c(=O)[nH]1	inconclusive: 39.8 µM [inhibitor, single point]	–
Nc1ccc2nc(-c3ccccc3)[nH]c2c1	inconclusive: 22.4 µM [inhibitor, partial curve]	–
COc1ccc(OCC(=O)OCc2cc(=O)n3nc(C4CC4)sc3n2)cc1	–	inactive: -3.35%
CCOc1ccc(S(=O)(=O)c2c(C(=O)c3ccc(C)cc3)cnc3cc4c(cc23)OCCO4)cc1	inconclusive: 20 µM [inhibitor, partial curve]	–
Cc1cc(/C=N/n2c(COc3ccccc3C)nc3ccccc3c2=O)c(O)c([N+](=O)[O-])c1	inconclusive: 44.7 µM [inhibitor, single point]	–
CN(CCO)c1ccc(-c2nn(C)c(=O)c3ccccc23)cc1[N+](=O)[O-]	inconclusive: 3.55 µM [inhibitor, full curve, poor fit]	–
CCOc1ccc(C(=O)Nc2ccccc2NC(C)=O)cc1OCC	inconclusive: 8.91 µM [inhibitor, single point]	–
Cc1onc(-c2ccccc2Cl)c1C(=O)NCCn1c(C)cc2ccccc21	inconclusive: 4.47 µM [inhibitor, single point]	–
N#Cc1ccccc1OCC(=O)OCC(=O)NC1CCS(=O)(=O)C1 (centres undefined)	–	inactive: 1.76%

For reference, some entries already given:
SMILES	Potency	activity change, negative = inhibition
O=C(CCCOc1cccc(Br)c1)NC1CCC(O)CC1 (centres undefined)	inconclusive: 39.8 µM [inhibitor, single point]	–
CCc1ccc(NC(=O)NCc2cccnc2)cc1	inconclusive: 8.91 µM [inhibitor, single point]	–
Cc1ccc(-c2noc(-c3ccc(NCc4cccnc4)c([N+](=O)[O-])c3)n2)cc1	–	inactive: -9.2%
O=C(CSc1nccc(=O)[nH]1)N1N=C2/C(=C/c3ccco3)CCCC2C1c1ccco1 (centres undefined)	inconclusive: 25.1 µM [inhibitor, single point]	–

Further results

SMILES	Potency	activity change, negative = inhibition
COc1cccc(C2CC(=O)N3CN(C4CCCCC4)CSC3=C2C#N)c1 (centres undefined)	inconclusive: 22.4 µM [inhibitor, single point]	–
CC1CN(C(=O)N2CCC(C(=O)NC3CCCCCC3)CC2)c2ccccc2O1 (centres undefined)	–	inactive: -12%
CCOc1ccc(-n2nnc3c(=O)n(CC(=O)Nc4cc(C)on4)cnc32)cc1	inconclusive: 5.01 µM [inhibitor, full curve, poor fit]	–
Cc1ccccc1-n1nc2c(c1NC(=O)c1ccc(Br)o1)CSC2	inconclusive: 39.8 µM [inhibitor, single point]	–
CCc1ccc([C@@H]2CC=C(C(=O)O)[C@H](c3ccc(Br)cc3)N2S(=O)(=O)c2ccc(C)cc2)cc1	inconclusive: 31.6 µM [inhibitor, single point]	–
CCc1nn(CC(=O)NCCCN2CCOCC2)c(=O)c2cc3sccc3n12	inconclusive: 3.16 µM [inhibitor, partial curve]	–
CCCn1c(=O)c(C(=O)Nc2ccccc2C)c(O)c2ccccc21	inconclusive: 12.6 µM [inhibitor, partial curve, poor fit]	–
O=C(O)c1ccccc1-c1c2ccc(=O)cc-2oc2cc(O)ccc12	inconclusive: 31.6 µM [inhibitor, partial curve] and inconclusive: 28.2 µM [inhibitor, partial curve]	–
CN1CCN(C(=O)c2cc3c(n(-c4ccccc4)c2=O)CC(C)(C)CC3=O)CC1	inconclusive: 3.16 µM [inhibitor, single point]	–
Cc1nn(CC(=O)Nc2cccc(C(F)(F)F)c2)c(=O)c2cccn12	–	inactive: -1.63%
Cc1ccc(OCC(=O)Nc2sc3c(c2C#N)CC(C)(C)NC3(C)C)cc1	–	inactive: -5.42%
CC1(C#N)c2ccccc2C(Br)=CN1C(=O)c1ccccc1 (centres undefined)	inconclusive: 28.2 µM [inhibitor, single point]	–
CC[C@@H]1C(c2ccc(F)cc2)=NN(c2ccccc2)[C@H]1C(=O)N1CCOC1=O	inconclusive: 31.6 µM [inhibitor, partial curve]	–
CCOc1ccccc1CNC(c1ccccc1)c1ccccc1	inconclusive: 35.5 µM [inhibitor, single point]	–
COn1cnnc1-c1ccccc1	inconclusive: 25.1 µM [inhibitor, single point]	–
O=C(OCC(=O)N1CCN(C(=O)c2ccco2)CC1)c1cc(-c2ccco2)nc2ccccc12	inconclusive: 31.6 µM [inhibitor, single point]	–
COc1cnc(-c2ccccn2)nc1Sc1c(Cl)cccc1Cl	–	inactive: -1.14%
CCCCn1c(NC(C)=O)c(C#N)c2nc3ccccc3nc21	inconclusive: 25.1 µM [inhibitor, single point]	–
CCN1C(=O)S/C(=C/c2c(OCc3ccc(C(=O)O)cc3)ccc3ccccc23)C1=O	inconclusive: 35.5 µM [inhibitor, single point]	–
C[C@H](CCC(=O)NCC(=O)O)[C@H]1CC[C@H]2[C@H]3[C@@H](C[C@@H](O)[C@]12C)[C@]1(C)CC[C@H](O)C[C@@H]1C[C@@H]3O	inconclusive: 8.91 µM [inhibitor, single point]	–

Source: PubChem BioAssay AID504327 (National Center for Advancing Translational Sciences (NCATS), 2011)
